Results reported in patent publication US20190153092A1 (NBE THERAPEUTICS, published 2019).
Results are given in words; binding and its absence hold for the method and conditions named. Some results given as binding are weak or reduced against the parent protein; the word gives no strength.

Protein sequences, listed by entry. Tags and fused reporters are not part of them. Lines headed by an entry give the natural chain unless they say otherwise; changes in a name come on top. Chains listed by the source or under a name are the forms on record and can include a tag or linker.
StrepII-tagged ROR1-extracellular domain (human) (Q01973, form named): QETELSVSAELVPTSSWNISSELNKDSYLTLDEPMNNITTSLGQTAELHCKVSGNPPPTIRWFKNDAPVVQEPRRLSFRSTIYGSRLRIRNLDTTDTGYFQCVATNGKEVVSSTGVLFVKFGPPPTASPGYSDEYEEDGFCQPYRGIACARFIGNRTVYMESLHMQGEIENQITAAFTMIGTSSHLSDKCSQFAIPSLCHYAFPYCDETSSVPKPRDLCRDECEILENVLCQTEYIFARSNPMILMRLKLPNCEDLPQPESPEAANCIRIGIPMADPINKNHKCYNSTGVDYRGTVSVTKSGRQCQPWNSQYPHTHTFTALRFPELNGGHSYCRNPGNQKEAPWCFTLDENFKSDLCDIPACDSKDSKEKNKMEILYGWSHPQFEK

Target: StrepII-tagged ROR1-extracellular domain (human) (human) (UniProt Q01973)
Experiment: SPR isoaffinity plot, single concentration of ROR1-strep (40 nM per the text), purified parental mAb captured by anti-human Fc, triplicates

B1: chimeric mAb 2A2 (mouse variable regions, human IgG1/kappa constant regions) (antibody, V domains shown)
VH: QVQLQQSGAELVRPGASVTLSCKASGYTFSDYEMHWVIQTPVHGLEWIGAIDPETGGTAYNQKFKGKAILTADKSSSTAYMELRSLTSEDSAVYYCTGYYDYDSFTYWGQGTLVTVSA
VL: DIVMTQSQKIMSTTVGDRVSITCKASQNVDAAVAWYQQKPGQSPKLLIYSASNRYTGVPDRFTGSGSGTDFTLTISNMQSEDLADYFCQQYDIYPYTFGGGTKLEIK
notes: also called chim 2A2; parental mAb 2A2
- binding: binds
